Reference: PMC11132869
For at least one entry, the source does not settle the construct or the ends of the probe. At least one verdict rests on a figure or table, not on a statement of the authors.

Amino acid sequences for entries named in this document (tags omitted). Residues count along the entry.
UniProt Q10M41, 1-350: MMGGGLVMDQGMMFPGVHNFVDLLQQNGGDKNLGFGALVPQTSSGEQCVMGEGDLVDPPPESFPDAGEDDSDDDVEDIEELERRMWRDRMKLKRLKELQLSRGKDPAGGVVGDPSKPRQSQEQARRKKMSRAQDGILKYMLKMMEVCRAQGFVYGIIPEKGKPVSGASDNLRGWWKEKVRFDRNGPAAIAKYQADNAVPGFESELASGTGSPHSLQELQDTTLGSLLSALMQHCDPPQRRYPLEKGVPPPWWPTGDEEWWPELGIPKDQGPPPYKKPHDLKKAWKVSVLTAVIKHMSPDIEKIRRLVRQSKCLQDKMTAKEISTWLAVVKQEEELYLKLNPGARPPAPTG

What follows are sequences tested against GST-EIL1-N (OsEIL1 N-terminal) (Oryza sativa) (UniProt Q10M41) (assay: EMSA). Conditions: competed by excess unlabeled probe; LightShift Chemiluminescent EMSA Kit; 20 min at room temperature; 5% native polyacrylamide gel; salt and pH not stated; recombinant protein; residues 1-350; protein details: GST; label: biotin end label.

Row | Sequence | binding result
1 | ACAAATACTCACCGTACATGTACGGACTCACTCATATCCC (double strand) [OsWOX11-Probe 1] | binds
2 | ATACTAGGGATATTCCGATTAATGTACACGTGCCTTCAATTATA (double strand) [OsWOX11-Probe 2] | binds
3 | GAAAATGACATATACAGTACATCATGTACTCCAACTAATAATTAACAACA (double strand) [OsWOX11-Probe 3] | binds
